Reference: PubChem BioAssay AID540276 (National Center for Advancing Translational Sciences (NCATS), 2011)
About 5,400 (1.8%) of roughly 300,000 compounds were called active. The inconclusive results got no clear call from the source; some entries with a clear call stand among them for comparison. Calls come from the whole dose curve; tested in HEK293 cells. Potencies of inconclusive entries are doubtful fits and often do not repeat.

test: qHTS for inhibitors of binding or entry into cells for Marburg Virus; conditions: Marburg virus pseudotyped entry inhibition, cell reporter; series mostly up to 37.8 µM
Potency is the fitted concentration of half-maximal effect.

SMILES | Potency
CCC(=O)Nc1cccc(-c2nc3ccccc3o2)c1 | inactive
Cc1ccc(S(=O)(=O)NCc2ccccc2)cc1C(=O)N1CCCC(C(F)(F)F)C1 (stereo unspecified) | inconclusive: 20 µM [inhibitor, partial curve, poor fit]
Cc1ccc(NC(=O)CNC(=O)CC23CC4CC(CC(C4)C2)C3)c(O)c1 | inconclusive: 35.5 µM [inhibitor, single point]
Cn1nnnc1SCC(=O)Nc1ccccc1[N+](=O)[O-] | inconclusive: 0.112 µM [activator, full curve, poor fit]
Cc1cc(-c2ccccc2)n(-c2ccccc2)n1 | inactive
COc1cccc(C2=CC(c3cccc(OC)c3OC)n3nnnc3N2)c1 (stereo unspecified) | inconclusive: 6.31 µM [inhibitor, single point]
COc1ccccc1NC(=O)C1=C(C)Nc2nc(SCc3ccccc3C)nn2C1CC(C)C (stereo unspecified) | inactive
CN(C)c1ccc(N2C(=O)CSC2=S)cc1 | inactive
O=C(COc1nncc2ccccc12)NCC(F)(F)F | inconclusive: 5.62 µM [inhibitor, single point]
O=C(CN1C(=O)/C(=C\c2cccc(F)c2)Oc2ccccc21)N1CCN(c2ccccn2)CC1 | inconclusive: 2.51 µM [activator, partial curve]
ONC(=Nc1ccccc1)C(=Nc1ccccc1)NO | inactive
O=C(CSc1nc2cc(Cl)ccc2s1)Nc1cccc(S(=O)(=O)N2CCOCC2)c1 | inconclusive: 12.6 µM [inhibitor, single point]
O=C(CN1C(=O)CC(c2ccccc2)S(=O)(=O)c2ccccc21)N1CCCC1 (stereo unspecified) | inconclusive: 28.2 µM [inhibitor, single point]
O=C(/C=C/c1cn(CC(O)CN2CCCCC2)c2ccccc12)c1cccs1 (stereo unspecified) | inconclusive: 20 µM [inhibitor, single point]
CCN(CC#CCC(O)(c1ccccc1)C1CCCC1)C(C)C (stereo unspecified) | inconclusive: 35.5 µM [inhibitor, single point]
CCCCN(N=Nc1nonc1OC)c1nonc1OC | inactive
O=C(O)C(Cc1ccc(O)cc1)N1C(=O)c2c(Cl)c(Cl)c(Cl)c(Cl)c2C1=O (stereo unspecified) | inactive
COc1ccccc1OC1=NS(=O)(=O)c2ccccc21 | inactive
CC(=O)Oc1c(/C=C(\C#N)C(N)=O)[nH]c2ccccc12 | inconclusive: 16.4 µM [inhibitor, partial curve, poor fit]
O=S(=O)(Nc1nc2c(s1)CCCC2)c1ccc(F)cc1 | inactive
CCOC(=O)c1c(-c2cccs2)csc1NC(=O)CN(CC)CC | inconclusive: 29.1 µM [inhibitor, single point]
CCc1ccccc1NC(=O)c1ccc2c(c1)N(Cc1cc(C)ccc1C)C(=O)c1ccccc1S2(=O)=O | inconclusive: 11.2 µM [inhibitor, partial curve, poor fit]
Cc1sc2nc(CSC(C)C(=O)N(C)CC(=O)Nc3ccccc3C(F)(F)F)[nH]c(=O)c2c1C (stereo unspecified) | inconclusive: 17.8 µM [inhibitor, single point]

SMILES | Potency
CCC(O)CC(C(=O)NNc1ccccc1)C(=O)NNc1ccccc1 (stereo unspecified) | active: 2.51 µM
COC(=O)c1cc2sccc2n1Cc1nc(-c2ccc(Cl)cc2)oc1C | inconclusive: 29.1 µM [inhibitor, single point]
CCNS(=O)(=O)c1ccc(OC)c(C(=O)NC2CCCCC2)c1 | inactive
O=C(CCN1C(=O)C2C3C=CC(C3)C2C1=O)N1CCN(c2ccccn2)CC1 (stereo unspecified) | inactive
COCCN1CCN(c2c(C)c(C)nc3cc(-c4cccc(OC)c4)nn23)CC1 | inactive
Cc1c(C(=S)Nc2ccccc2)cnn1-c1ccc([N+](=O)[O-])cc1 | inconclusive: 35.5 µM [inhibitor, single point]
CN(CC(=O)Nc1cccc(F)c1)C(=O)c1ccc2c(c1)OCCO2 | inconclusive: 12.6 µM [activator, partial curve]
O=C(N/N=C/c1ccco1)c1ccccc1OCc1ccc(Br)cc1 | inconclusive: 5.62 µM [inhibitor, full curve]
O=C(Nc1ccc(-c2nc3cc(Cl)ccc3o2)cc1)C1CCCO1 (stereo unspecified) | inconclusive: 4.61 µM [activator, partial curve]
Cc1cc(C)nc(N/N=C/C(Cl)=C/c2ccccc2)n1 | inconclusive: 23.1 µM [activator, single point]
Cc1noc(C)c1CSc1nc2ccccc2c(=O)n1-c1ccccc1 | inconclusive: 8.91 µM [inhibitor, partial curve, poor fit]
COc1cccc(C(=O)/C=C2\Sc3ccccc3N2C)c1 | inconclusive: 4.47 µM [inhibitor, full curve, poor fit]
CCS(=O)(=O)c1cc([N+](=O)[O-])c(Sc2ccccc2NC(C)=O)s1 | inconclusive: 3.55 µM [activator, partial curve, poor fit]
O=C(OCCOCn1cc(Br)c(=O)[nH]c1=O)c1ccccc1 | inactive
O=C(Nc1cccc(Cl)c1)c1cnc[nH]1 | inconclusive: 20 µM [activator, partial curve, poor fit]
COc1ccc(Br)cc1C1Sc2ccccc2NC2=C1C(=O)c1ccccc12 (stereo unspecified) | inconclusive: 15.8 µM [inhibitor, single point]
O=C1CCC(=O)N1c1ccccc1OS(=O)(=O)c1ccccc1 | inconclusive: 35.5 µM [activator, single point]
CC(NC(=O)CCNS(=O)(=O)c1cccc2nsnc12)c1ccccc1 (stereo unspecified) | inactive
CCN(CC)CCOC(=O)c1ccc([N+](=O)[O-])cc1 | inconclusive: 1.12 µM [inhibitor, single point]
CCOc1ccc2nc(N(CCN(CC)CC)C(=O)c3ccc([N+](=O)[O-])cc3)sc2c1 | inconclusive: 5.62 µM [inhibitor, full curve, poor fit]
Cn1c(CN2CCN(C(=O)c3ccccc3)CC2)nc2cc([N+](=O)[O-])ccc21 | inactive
COc1ccc(C(=O)Nn2cnc3ccccc3c2=O)c(OC)c1 | inactive
COc1ccc(C(CNC(=O)Cc2ccc(Cl)c(Cl)c2)N(C)C)cc1 (stereo unspecified) | inconclusive: 10 µM [inhibitor, partial curve, poor fit]

4 of these compounds, reformatted.
O=C(O)C(Cc1ccc(O)cc1)N1C(=O)c2c(Cl)c(Cl)c(Cl)c(Cl)c2C1=O (stereo unspecified)
  Potency: inactive
O=S(=O)(Nc1nc2c(s1)CCCC2)c1ccc(F)cc1
  Potency: inactive
O=C(CCN1C(=O)C2C3C=CC(C3)C2C1=O)N1CCN(c2ccccn2)CC1 (stereo unspecified)
  Potency: inactive
CCN(CC)CCOC(=O)c1ccc([N+](=O)[O-])cc1
  Potency: inconclusive: 1.12 µM [inhibitor, single point]
